# In PubChem BioAssay AID1508600 (Functional Genomics Laboratory (NCATS/FGL), 2020):
# Out of some 53,000 sequences screened, about 3,700 (7%) were called active.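 Rule for the calls: active = gene knockdowns whose robust z-score for IL-1 alpha signal is at least 2 or at most -2, so actives lie on both sides; inactive = the rest.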 Some of the results follow.
# Assay: Components of the Cytosolic LPS Sensing Pathway: Gene Identification via Genome-wide siRNA Screen;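 note: robust z of the log signal after scaling to non-targeting control siRNA wells of the plate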
# Settings: RAW264.7 macrophages, IL-1a HTRF, actives lie on both sides, screened at 100 nM (by protocol), cells primed 5 h with Pam3CSK4 first
# How it was run: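 Three distinct siRNAs per gene were tested singly at 100 nM in RAW264.7 macrophages. Following Pam3CSK4 priming and 24 hour LipidA transfection, IL-1a secretion was read by HTRF.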
row,Sequence,z-score
1,AUUUACGGGAGAUCAGCUUTT against Olfr670,inactive: -0.697
2,GGAGGAUGAAGAGCUAUUATT against Smarca5,inactive: -0.0196
3,GCCUUGGUCCUUAAAUAUATT against Slc7a2,inactive: -0.414
4,GCAAGCCAAGCACUUCAUUTT against Ppp1cc,inactive: 0.314
5,GCGUGGAGAUAAAACCAAUTT against Phka2,inactive: -1.37
6,GCAGGUACCCGGAUUGUCATT against Acr,inactive: 1.41
7,GGCCGAUGCCAAAUUGGUATT against Olfm1,inactive: 0.0323
8,ACAAGAAACGUACAAGACATT against Fbxw20,inactive: 0.818
9,GGAGUUCCUUUUUAAACACTT against Bnip3,inactive: 0.831
10,CGAACUUCCAAAAAGUUCATT against A430005L14Rik,inactive: -0.498
11,GGUUUCUUCAUCUUGUAUUTT against Gjd4,inactive: 0.184
12,GGUACUACAAGCUAGCUGUTT against Scd4,inactive: -0.114
13,GCCGUUUUAAGAUACCGAUTT against Pde1c,inactive: 0.642
14,GGACACAGGACUCUACACCTT against Psg16,inactive: 0.293
15,GCGUGUGAAGGCAACCAUUTT against Nos3,inactive: -1.84
16,GCGAUAUUAACUAUGGAGATT against Gpr149,inactive: -0.601
17,GGACGACAACGACAUCAUGTT against Sfrp2,inactive: 0.475
18,GCACGGAUUAAUGUGAUGATT against Ilk,inactive: 0.406
19,GCCGUAUGGAGCCAUAGCUTT against Tes,inactive: -1.25
20,CCAUUGCACUGCGCCAACATT against 1700001O22Rik,inactive: -0.478
21,CCUGAACAUAAAGUUUACUTT against Catsper4,inactive: 0.209
22,GGUACAAACUGUUACAUUUTT against Col12a1,inactive: 1.13

# As a working copy, some entries already given:
row,Sequence,z-score
9,GGAGUUCCUUUUUAAACACTT against Bnip3,inactive: 0.831
10,CGAACUUCCAAAAAGUUCATT against A430005L14Rik,inactive: -0.498

# Further results

row,Sequence,z-score
1,GCCUAAGUUCUAGCAAAAUTT against Spata31d1d,inactive: 0.514
2,GGAUCUUCUGCCGUCUUGATT against Creb5,inactive: -0.201
3,CGACUUGGGUUUUCACGGCTT against Arsb,inactive: -1.47
4,GGAAAAAAAGCAAAUGAUCTT against Ndufa10,inactive: -0.738
5,GGUGGAGAUGGAAAUUGUCTT against Lmod2,inactive: 1.61
6,GGACUGGAAAAUCGGCUUCTT against Scnn1a,inactive: -0.161
7,GGGACUUUGAGUCUAACAATT against Pnliprp1,inactive: -0.876
8,GCAGUUCUGGUUCUGUCUGTT against Nudcd3,inactive: -0.203
9,GCAAUGGAUACAGGACCUUTT against Nupr1,inactive: 0.593
10,GGAUUUGAAGUCACUCAUUTT against Nubp1,inactive: -0.725
11,GCCAACCUGAAACCAUCUATT against Ptprg,inactive: 0.0567
12,GGAUGAACUUAGCUACCCATT against Slc25a20,inactive: -1.46
13,GGUUCAAAUGUUGCAUAGUTT against Klrc2,inactive: 0.597
14,GGACAUGGAGAAAAAGUACTT against Styk1,inactive: 0.547
15,GCCAACGAAAAAUGACCUCTT against Wnt2,inactive: -0.046
16,GGACUCCAAGAAUUUAACATT against Fbxo22,inactive: -0.73
17,GAAGCUGUCCAAGUACGAGTT against Atoh7,inactive: -0.299
18,CCAAUCAGGUUGAAUAAGATT against Prr14,inactive: -0.528
19,GCCCAAAGGUCAAGGAUAUTT against Rptn,inactive: -0.036
20,GGGAGUCAAGCUGUUUGCUTT against Col7a1,inactive: 0.633
21,CGAUUCAUCUGUGUUCGUGTT against Adgrb1,inactive: 1.18
22,GGAUGUUGGCAGCCGAACATT against St3gal2,inactive: -0.684

row,Sequence,z-score
1,CCCAGUAUUUUGGAACUAUTT against Napsa,inactive: 1.49
2,CCCACUGGUGUACGUGAUCTT against Bdkrb2,active: 2.21
3,GGGCCAUGGAAUUGUAAGATT against Mobp,inactive: -0.0128
4,GGGUUUUGGGAUAAAUAACTT against D030056L22Rik,inactive: -0.111
5,GGCAAACCUGCAAACAUCUTT against Prss52,inactive: 0.962
6,GGAAACUGGCAGUUUGGGUTT against Slc35a1,inactive: -0.367
7,GCAGCUCCAUACCAAUUCCTT against Phf8-ps,inactive: 0.238
8,GGAAUUGUCCCGGAAGAGGTT against Zc3hc1,inactive: -0.62
9,CCAGACUCAUAAUGUUAAUTT against 9430077A04Rik,inactive: -1.13
10,CCUUUAAUUUCACUGUUACTT against Gabarapl2,inactive: 0.269
11,CGAUCAAGGAUCUUAAGAUTT against Aox4,inactive: -1.13
12,CCUGCCUGACACAUUGUGATT against Ntan1,inactive: -1.64
13,GGUUGUAAGUGUCUUAAAGTT against Pdcd6ip,inactive: 0.438
14,GACUGAAACACUCAAAGCCTT against Cox7b2,inactive: -0.138
15,GGAAUGAUGAUGUCUCAUATT against Prpf40a,inactive: -0.327
16,CCAAUAACAGGAUUGAGAATT against Tnfrsf8,inactive: -0.528
17,GCCGUUUGUACCUUGUCAGTT against 4933430I17Rik,active: -3.01
18,GGAACUUCUGGUAAGUUUGTT against Ints7,inactive: 0.37
19,GGAUCAAUGCCCGACUACATT against Phf14,inactive: 0.281
20,GGUGAUUGCAUACCUAUGATT against Irs4,inactive: 0.614
21,GGAAAAAGAGGAUGAGUGCTT against Gm4861,active: 2.01
22,GGAUCAAAGCUCCGGUAUATT against Farsb,inactive: -0.589

row,Sequence,z-score
1,GGGCAUCUUCUGCUACUUCTT against Slc8b1,inactive: -0.935
2,CGUAGAUCUUUCAUUUGUCTT against Tgds,inactive: 1.12
3,GGAAGUGUUUCACGUGGAATT against Uhrf1,inactive: 0.542
4,GGUUCAAAGCUAUCCACUUTT against Rlbp1,inactive: -0.527
5,CCAUACGAUGACUGAAUUCTT against Olfr1186,inactive: 0.545
6,GCAUAAGGUUUGUGACAUUTT against Wrnip1,inactive: -1.49
7,GGAGCUCCUUUACUGAAGGTT against 3110070M22Rik,inactive: 0.339
8,GGAGUCUUCGAAAAUUGAGTT against Pmfbp1,inactive: -1.73
9,GGAGAUUUUGGUGGCUAUUTT against Uqcrfs1,inactive: -1.1
10,GCAAGCGAUGGCACAUAGATT against Ap1g2,inactive: 1.03
11,GGGACUUUUUUUGAAUCCUTT against Ndrg3,inactive: -0.238
12,GGCGAAGUGUCAUUGUAUUTT against Foxd3,inactive: -0.0201
13,GGAACUCACAACUAUGAGCTT against Pla2g10,inactive: 0.206
14,GGAGCAUCGAUCUUGAUUCTT against Sh3tc2,inactive: 1.79
15,GGUAGUUUGAAAUGCUAACTT against St6gal2,inactive: 1.84
16,GCUUAACAACUACGAGCCCTT against Dot1l,inactive: -0.284
17,GCCAAACUGCGUCUGAAUGTT against Rras,inactive: 0.62
18,GGUGACAAUUCAAAACUCATT against Fgf18,inactive: 0.427
19,GGCAUUUCUUCCAGAUAUUTT against Il1r1,inactive: -0.31
20,GGAGAAAAGAUAUGCUAUGTT against Appl2,inactive: 1.89
21,GGGCAAAGGUCAGUACUUGTT against Col8a2,inactive: 0.386
22,GGAGGUCUACGACCUGAAUTT against Rbfa,inactive: 0.877

row,Sequence,z-score
1,GGAUAGAUACUGUACUAAUTT against Med21,inactive: 1.24
2,GGGAGAUAGGCAUUUGAUGTT against Arid3a,inactive: -0.3
3,GGUACUAGGCCUGAUCUUGTT against Josd2,inactive: 1.93
4,GGGUAGGAGGAAAGUGUUCTT against Olfr1093,inactive: 1.55
5,GGGAUGUUUAUUGUGUUCCTT against Tuba1a,inactive: 1.63
6,CCAUAAAUCACUCAGUUUGTT against Adad1,inactive: 0.222
7,GGUUGCACUACUAAGUGUCTT against Sdr16c5,inactive: -1.08
8,CGCAUAUCAAAACUCAGAATT against Mtm1,inactive: -0.487
9,GGAUGAUAUUGAAAGUCUGTT against Me2,inactive: 0.512
10,GGUCAAGAAGAACAAGCUGTT against Ucn3,inactive: -0.509
11,CGGUUACCACCUCACAUUCTT against Cgnl1,inactive: -0.167
12,GCUUAACCGUUUUUUCAAATT against Tgif1,inactive: 0.764
13,GGCUAUUUGUAUGCUGGAATT against Usp54,inactive: -0.246
14,GGCUACGUAGGACAUGACUTT against Best3,inactive: -1.94
15,GGAACCACAUGACUUCAGCTT against Dynlt1b,inactive: 0.272
16,GAAGACGAACUCUACCAGGTT against Izumo1r,inactive: 1.2
17,CCCUCUCUUUUAUAGAUGATT against Ap3s2,inactive: 1.1
18,GCCGCUCUGUACUUUGUCUTT against Eva1a,inactive: 1.04

# Some of the entries so far, bar-delimited:
row | Sequence | z-score
12 | CCUGCCUGACACAUUGUGATT against Ntan1 | inactive: -1.64
13 | GGUUGUAAGUGUCUUAAAGTT against Pdcd6ip | inactive: 0.438
